The other results are listed elsewhere or left out. Residues, ends and D or L forms follow the SMILES beside them. *: point of attachment. Cbz = O=C(OCc1ccccc1)*
Compound: CC(C)C[C@@H](C=O)NC(=O)[C@H](CC(C)C)NC(=O)[C@H](CC(C)C)NC(=O)OCc1ccccc1
Test: log2 fold change, soluble protein after heating vs DMSO (PISA); higher = thermal stabilisation; K562 cells, 10 uM, 30 min; active = over 0.2 and 3.5 SD of the protein, either way, in both replicates (recomputed)
Method in brief: (§1)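 K562 cells (2×10^6 cells/mL) were treated with 10 μM compound for 30 min, and aliquots were heated for 3 min over 48°C-58°C. Pooled aliquots were extracted in PBS with 0.5% NP-40 at 4°C, and the supernatant after 21,000xg for 90 min was measured by TMTpro 16plex LC-MS/MS with channel sums equalised. Reported thermal stability, relative to control samples and from duplicates, is a log2 fold change.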

Protein sequences, listed by entry. Tags and fused reporters are not part of them. Lines headed by an entry give the natural chain unless they say otherwise; changes in a name come on top.
UniProt P21439, whole entry, looked up: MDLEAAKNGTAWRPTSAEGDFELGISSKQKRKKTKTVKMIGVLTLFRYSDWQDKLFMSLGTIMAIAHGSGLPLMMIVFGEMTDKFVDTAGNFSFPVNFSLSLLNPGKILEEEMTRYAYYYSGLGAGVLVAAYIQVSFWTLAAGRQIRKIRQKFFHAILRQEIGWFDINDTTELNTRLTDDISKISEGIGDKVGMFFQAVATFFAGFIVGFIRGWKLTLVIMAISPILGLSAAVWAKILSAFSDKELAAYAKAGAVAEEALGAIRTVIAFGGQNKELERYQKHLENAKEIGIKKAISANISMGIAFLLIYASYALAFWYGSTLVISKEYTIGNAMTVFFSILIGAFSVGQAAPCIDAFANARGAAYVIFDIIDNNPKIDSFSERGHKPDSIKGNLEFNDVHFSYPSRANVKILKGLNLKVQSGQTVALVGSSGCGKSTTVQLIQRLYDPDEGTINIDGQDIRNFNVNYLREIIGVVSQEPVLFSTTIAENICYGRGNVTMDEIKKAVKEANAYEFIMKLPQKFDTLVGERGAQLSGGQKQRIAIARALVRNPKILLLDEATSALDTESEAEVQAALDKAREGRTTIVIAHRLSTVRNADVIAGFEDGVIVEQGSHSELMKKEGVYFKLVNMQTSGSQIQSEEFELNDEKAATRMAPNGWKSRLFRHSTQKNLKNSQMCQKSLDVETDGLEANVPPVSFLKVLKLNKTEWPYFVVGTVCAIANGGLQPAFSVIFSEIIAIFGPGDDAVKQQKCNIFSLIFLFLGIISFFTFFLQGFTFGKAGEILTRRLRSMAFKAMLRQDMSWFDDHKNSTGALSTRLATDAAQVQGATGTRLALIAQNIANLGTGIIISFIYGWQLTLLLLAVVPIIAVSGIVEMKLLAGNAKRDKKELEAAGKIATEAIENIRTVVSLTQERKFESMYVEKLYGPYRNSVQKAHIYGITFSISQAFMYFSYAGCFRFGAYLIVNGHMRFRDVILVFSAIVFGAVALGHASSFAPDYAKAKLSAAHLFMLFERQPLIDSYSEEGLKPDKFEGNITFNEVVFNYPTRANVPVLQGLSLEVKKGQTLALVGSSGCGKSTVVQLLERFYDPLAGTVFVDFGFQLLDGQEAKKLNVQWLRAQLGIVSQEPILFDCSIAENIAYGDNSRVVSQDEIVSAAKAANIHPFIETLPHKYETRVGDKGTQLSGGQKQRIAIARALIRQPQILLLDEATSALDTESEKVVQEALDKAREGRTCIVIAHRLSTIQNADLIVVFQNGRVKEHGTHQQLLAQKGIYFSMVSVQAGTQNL
UniProt Q86TW2: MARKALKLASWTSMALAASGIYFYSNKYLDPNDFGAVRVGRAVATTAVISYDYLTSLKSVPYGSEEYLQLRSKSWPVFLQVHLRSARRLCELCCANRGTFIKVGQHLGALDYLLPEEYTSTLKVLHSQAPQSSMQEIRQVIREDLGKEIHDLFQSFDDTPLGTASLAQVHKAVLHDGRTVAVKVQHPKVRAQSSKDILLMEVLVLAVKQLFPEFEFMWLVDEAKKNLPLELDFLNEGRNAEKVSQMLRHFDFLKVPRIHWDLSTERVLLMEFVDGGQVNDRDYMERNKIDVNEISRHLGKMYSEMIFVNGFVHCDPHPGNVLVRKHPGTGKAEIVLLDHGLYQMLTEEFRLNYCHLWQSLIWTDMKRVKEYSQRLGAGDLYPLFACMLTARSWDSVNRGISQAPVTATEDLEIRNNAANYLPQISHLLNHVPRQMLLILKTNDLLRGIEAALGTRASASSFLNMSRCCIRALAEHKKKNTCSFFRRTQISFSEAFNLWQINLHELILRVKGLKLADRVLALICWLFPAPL
UniProt Q6JQN1: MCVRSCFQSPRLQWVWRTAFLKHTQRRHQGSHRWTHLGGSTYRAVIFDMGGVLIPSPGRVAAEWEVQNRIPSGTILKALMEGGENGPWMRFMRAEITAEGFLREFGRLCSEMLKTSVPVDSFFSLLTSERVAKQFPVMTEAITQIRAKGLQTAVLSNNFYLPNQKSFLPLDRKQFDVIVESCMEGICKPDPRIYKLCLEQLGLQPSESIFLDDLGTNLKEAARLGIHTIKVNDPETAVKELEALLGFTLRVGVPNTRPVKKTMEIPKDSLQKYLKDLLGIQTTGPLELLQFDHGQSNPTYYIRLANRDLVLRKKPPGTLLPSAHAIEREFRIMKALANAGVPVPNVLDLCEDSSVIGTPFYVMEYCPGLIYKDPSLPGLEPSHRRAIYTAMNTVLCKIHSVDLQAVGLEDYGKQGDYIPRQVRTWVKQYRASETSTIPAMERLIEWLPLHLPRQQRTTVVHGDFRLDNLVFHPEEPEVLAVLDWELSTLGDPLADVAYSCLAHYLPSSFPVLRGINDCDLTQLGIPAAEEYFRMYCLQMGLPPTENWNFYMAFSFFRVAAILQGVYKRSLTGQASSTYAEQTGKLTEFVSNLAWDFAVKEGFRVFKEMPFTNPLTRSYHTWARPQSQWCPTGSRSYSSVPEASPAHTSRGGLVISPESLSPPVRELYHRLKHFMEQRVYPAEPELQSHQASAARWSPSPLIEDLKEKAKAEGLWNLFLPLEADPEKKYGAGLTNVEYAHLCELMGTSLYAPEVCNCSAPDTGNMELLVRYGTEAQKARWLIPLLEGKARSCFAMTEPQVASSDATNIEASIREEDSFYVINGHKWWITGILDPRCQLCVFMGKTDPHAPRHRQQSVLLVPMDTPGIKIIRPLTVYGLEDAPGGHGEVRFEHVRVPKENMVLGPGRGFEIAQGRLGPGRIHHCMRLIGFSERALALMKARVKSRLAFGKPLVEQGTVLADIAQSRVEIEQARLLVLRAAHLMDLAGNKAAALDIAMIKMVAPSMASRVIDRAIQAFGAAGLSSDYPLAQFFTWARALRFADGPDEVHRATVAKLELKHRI
UniProt Q86V21: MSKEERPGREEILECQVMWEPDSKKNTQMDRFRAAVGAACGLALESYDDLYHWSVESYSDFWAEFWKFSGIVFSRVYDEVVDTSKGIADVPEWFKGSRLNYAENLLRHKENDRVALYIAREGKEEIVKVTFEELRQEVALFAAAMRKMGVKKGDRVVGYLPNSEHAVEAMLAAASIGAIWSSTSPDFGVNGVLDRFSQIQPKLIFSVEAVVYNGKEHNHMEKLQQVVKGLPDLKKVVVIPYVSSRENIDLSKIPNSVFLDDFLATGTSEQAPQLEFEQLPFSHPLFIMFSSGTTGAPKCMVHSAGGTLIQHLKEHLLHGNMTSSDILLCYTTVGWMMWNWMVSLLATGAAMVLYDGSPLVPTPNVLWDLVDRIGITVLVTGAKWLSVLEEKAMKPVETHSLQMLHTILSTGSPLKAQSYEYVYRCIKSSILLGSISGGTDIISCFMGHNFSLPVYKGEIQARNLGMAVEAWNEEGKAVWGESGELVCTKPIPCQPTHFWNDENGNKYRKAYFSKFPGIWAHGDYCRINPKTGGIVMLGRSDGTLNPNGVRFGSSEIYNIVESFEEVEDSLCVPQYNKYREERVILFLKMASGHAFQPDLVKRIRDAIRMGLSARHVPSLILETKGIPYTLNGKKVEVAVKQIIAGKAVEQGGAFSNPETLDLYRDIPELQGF
UniProt Q9UKU0: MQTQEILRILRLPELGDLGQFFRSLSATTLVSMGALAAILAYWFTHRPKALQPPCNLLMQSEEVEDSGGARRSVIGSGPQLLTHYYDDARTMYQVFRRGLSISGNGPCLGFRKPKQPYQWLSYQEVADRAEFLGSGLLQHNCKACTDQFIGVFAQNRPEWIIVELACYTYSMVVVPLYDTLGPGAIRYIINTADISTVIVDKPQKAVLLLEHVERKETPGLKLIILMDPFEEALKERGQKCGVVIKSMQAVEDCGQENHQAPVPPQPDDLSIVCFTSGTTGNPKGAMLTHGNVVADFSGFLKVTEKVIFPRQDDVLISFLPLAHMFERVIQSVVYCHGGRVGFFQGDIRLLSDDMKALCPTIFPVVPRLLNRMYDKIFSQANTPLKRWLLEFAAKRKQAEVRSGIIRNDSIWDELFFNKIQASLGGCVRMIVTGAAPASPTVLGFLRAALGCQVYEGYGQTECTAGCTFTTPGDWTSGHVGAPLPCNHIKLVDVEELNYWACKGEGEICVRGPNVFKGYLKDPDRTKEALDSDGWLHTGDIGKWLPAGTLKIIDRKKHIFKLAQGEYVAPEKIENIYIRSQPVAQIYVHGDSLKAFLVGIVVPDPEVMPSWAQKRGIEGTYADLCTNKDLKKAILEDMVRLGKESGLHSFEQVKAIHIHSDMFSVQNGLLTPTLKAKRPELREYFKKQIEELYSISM
UniProt Q9NX38: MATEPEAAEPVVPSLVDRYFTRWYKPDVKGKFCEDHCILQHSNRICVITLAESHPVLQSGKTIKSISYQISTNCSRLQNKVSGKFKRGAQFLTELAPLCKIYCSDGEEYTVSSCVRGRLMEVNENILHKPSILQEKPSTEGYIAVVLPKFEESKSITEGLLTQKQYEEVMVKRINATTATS
UniProt P08183, whole entry, looked up: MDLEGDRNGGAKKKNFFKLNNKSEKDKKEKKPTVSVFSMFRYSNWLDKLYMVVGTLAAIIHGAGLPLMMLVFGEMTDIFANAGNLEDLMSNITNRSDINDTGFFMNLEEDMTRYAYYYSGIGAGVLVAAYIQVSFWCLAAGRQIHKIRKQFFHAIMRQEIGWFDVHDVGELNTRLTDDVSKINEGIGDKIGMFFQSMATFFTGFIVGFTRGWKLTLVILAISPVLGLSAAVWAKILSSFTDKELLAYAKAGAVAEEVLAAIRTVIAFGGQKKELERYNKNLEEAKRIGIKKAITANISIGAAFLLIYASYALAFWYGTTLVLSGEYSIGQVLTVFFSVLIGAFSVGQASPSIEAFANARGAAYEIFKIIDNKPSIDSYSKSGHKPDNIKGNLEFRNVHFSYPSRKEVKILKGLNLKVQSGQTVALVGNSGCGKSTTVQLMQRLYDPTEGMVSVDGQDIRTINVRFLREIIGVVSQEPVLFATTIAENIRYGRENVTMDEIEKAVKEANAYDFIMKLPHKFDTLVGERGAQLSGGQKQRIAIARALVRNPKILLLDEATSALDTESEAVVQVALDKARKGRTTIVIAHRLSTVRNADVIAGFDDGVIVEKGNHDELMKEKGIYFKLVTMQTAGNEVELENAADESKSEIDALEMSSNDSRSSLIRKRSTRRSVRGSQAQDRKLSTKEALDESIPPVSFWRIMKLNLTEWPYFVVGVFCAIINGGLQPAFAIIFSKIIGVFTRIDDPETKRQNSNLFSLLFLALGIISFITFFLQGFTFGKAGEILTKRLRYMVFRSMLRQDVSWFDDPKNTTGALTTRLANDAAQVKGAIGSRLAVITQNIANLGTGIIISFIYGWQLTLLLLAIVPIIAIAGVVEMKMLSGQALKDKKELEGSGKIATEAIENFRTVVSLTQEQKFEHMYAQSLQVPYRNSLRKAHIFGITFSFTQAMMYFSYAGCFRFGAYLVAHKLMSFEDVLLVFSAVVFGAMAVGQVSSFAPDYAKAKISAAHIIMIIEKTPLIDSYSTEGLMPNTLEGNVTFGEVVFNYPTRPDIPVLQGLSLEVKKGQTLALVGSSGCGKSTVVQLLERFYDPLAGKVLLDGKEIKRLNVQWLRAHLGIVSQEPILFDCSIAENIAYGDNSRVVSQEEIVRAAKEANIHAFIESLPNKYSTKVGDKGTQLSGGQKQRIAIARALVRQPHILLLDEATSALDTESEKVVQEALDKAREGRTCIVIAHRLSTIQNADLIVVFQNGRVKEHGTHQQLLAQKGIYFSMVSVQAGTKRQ
UniProt P78325: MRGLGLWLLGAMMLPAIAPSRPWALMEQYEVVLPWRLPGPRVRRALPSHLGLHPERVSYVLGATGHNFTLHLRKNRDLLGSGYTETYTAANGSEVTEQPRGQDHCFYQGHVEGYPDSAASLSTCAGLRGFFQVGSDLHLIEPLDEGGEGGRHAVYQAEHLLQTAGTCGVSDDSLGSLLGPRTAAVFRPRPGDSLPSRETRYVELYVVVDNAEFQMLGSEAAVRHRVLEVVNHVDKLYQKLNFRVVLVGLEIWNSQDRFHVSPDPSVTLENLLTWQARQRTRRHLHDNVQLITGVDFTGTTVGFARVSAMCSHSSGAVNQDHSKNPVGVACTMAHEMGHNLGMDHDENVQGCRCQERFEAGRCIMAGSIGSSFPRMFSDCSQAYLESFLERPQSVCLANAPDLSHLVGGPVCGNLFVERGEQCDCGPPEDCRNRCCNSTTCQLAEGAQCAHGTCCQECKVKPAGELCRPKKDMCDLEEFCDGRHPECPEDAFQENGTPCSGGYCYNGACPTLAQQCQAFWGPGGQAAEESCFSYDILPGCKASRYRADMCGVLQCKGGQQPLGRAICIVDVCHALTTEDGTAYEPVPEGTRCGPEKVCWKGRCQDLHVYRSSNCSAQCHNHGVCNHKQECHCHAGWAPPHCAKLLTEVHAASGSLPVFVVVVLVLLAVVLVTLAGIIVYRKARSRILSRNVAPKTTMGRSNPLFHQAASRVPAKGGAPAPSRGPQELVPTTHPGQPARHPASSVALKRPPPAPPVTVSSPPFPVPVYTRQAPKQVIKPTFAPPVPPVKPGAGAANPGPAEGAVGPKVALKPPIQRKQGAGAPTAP

log2 fold change, inactive:
ACTB, A0A2R8YEA7 -0.027
ACTR3B (UniProt Q9P1U1) 0.056
ADAD1 (UniProt Q96M93) 0.068
A2ML1 (UniProt A8K2U0) -0.081
ACTG1 (UniProt K7EM38) 0.117
ACCS (UniProt Q96QU6) 0
ABCB4 (UniProt P21439) 0.021
ADCK1 (UniProt Q86TW2) 0.067
ABCB11 (UniProt O95342) 0.036
ABHD5 (UniProt Q8WTS1) 0.096
ABHD6 (UniProt Q9BV23) -0.038
ACAD10 isoform 5 (UniProt Q6JQN1) 0.186
ACTG1 (UniProt I3L4N8) -0.198
ABL2 (UniProt P42684) 0.131
ABRACL (UniProt Q9P1F3) -0.184
AACS (UniProt Q86V21) 0.229
ACSL6 isoform 1 (UniProt Q9UKU0) 0.027
ABITRAM (UniProt Q9NX38) 0.016
ACSF2 isoform 2 (UniProt Q96CM8) 0.103
ABCA2 isoform 3 (UniProt Q9BZC7) -0.004
AASDH (UniProt Q4L235) -0.066

Compound: CC(C)N(C[C@H]1O[C@@H](n2cnc3c(N)ncnc32)[C@H](O)[C@@H]1O)[C@H]1C[C@@H](CCc2nc3cc(C(C)(C)C)ccc3[nH]2)C1 [pinometostat]
Test: as above
Method in brief: as §1

log2 fold change, inactive:
ACTR3B (UniProt Q9P1U1) -0.081
ADAD1 (UniProt Q96M93) 0.013
ABCB1 (UniProt P08183) 0.088
ACTG1 (UniProt K7EM38) -0.02
ADAM8 (UniProt P78325) 0.079
ACOX1 isoform 3 (UniProt Q15067) -0.054
AARSD1 (UniProt Q9BTE6) 0.041
ADCK1 (UniProt Q86TW2) 0.027
ABHD5 (UniProt Q8WTS1) -0.018
ACAT1, A0A5F9ZHJ0 0.145
ACYP2 (UniProt P14621) -0.027
ABL2 (UniProt P42684) 0.195
ABRACL (UniProt Q9P1F3) -0.074
ABITRAM (UniProt Q9NX38) -0.025
ABCA2 isoform 3 (UniProt Q9BZC7) 0.022
AASDH (UniProt Q4L235) 0.038
